Assay results taken from article PMC7642293.
No constants are given. Whether binding was seen depends on the method and setting. In cells and extracts the contact can be indirect. Some results given as binding are weak or reduced against the parent protein; the word gives no strength.

Protein sequences, listed by entry. Tags and fused reporters are not part of them.
UniProt Q92922: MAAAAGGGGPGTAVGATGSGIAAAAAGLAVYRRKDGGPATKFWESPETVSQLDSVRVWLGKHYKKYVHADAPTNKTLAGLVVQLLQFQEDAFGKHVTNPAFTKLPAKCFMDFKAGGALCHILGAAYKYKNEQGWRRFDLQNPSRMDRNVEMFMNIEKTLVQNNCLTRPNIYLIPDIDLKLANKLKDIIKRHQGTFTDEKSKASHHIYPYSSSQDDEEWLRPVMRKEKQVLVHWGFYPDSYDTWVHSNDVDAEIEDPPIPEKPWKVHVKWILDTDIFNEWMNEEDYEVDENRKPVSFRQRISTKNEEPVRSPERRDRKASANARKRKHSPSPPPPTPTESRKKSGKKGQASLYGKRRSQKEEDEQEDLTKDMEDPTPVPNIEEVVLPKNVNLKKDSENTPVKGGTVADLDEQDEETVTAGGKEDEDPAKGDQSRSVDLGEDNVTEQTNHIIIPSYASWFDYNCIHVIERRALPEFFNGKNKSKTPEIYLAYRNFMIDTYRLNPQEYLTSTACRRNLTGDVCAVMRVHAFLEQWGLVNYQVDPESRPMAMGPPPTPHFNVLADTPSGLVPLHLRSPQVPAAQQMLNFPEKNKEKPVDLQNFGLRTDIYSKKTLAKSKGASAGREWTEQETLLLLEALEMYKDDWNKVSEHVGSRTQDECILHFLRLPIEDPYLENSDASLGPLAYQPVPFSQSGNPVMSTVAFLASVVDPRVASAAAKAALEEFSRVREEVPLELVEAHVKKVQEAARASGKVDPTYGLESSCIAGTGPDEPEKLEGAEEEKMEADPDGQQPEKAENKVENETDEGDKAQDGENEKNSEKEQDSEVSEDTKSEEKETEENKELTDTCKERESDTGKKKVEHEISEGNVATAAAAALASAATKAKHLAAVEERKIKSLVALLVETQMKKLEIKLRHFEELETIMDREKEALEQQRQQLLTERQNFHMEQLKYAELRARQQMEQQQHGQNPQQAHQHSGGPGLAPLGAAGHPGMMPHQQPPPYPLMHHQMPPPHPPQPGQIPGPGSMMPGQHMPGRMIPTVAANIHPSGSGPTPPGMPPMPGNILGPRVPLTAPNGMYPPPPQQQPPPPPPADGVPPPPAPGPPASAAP
UniProt Q92826: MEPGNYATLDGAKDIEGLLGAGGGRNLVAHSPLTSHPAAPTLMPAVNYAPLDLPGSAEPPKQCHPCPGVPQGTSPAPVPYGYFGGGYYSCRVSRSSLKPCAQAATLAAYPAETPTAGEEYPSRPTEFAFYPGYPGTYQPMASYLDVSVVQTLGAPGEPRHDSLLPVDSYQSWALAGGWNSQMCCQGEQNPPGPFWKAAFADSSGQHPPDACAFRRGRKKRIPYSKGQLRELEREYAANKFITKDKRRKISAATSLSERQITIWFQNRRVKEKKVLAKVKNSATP
UniProt Q14839: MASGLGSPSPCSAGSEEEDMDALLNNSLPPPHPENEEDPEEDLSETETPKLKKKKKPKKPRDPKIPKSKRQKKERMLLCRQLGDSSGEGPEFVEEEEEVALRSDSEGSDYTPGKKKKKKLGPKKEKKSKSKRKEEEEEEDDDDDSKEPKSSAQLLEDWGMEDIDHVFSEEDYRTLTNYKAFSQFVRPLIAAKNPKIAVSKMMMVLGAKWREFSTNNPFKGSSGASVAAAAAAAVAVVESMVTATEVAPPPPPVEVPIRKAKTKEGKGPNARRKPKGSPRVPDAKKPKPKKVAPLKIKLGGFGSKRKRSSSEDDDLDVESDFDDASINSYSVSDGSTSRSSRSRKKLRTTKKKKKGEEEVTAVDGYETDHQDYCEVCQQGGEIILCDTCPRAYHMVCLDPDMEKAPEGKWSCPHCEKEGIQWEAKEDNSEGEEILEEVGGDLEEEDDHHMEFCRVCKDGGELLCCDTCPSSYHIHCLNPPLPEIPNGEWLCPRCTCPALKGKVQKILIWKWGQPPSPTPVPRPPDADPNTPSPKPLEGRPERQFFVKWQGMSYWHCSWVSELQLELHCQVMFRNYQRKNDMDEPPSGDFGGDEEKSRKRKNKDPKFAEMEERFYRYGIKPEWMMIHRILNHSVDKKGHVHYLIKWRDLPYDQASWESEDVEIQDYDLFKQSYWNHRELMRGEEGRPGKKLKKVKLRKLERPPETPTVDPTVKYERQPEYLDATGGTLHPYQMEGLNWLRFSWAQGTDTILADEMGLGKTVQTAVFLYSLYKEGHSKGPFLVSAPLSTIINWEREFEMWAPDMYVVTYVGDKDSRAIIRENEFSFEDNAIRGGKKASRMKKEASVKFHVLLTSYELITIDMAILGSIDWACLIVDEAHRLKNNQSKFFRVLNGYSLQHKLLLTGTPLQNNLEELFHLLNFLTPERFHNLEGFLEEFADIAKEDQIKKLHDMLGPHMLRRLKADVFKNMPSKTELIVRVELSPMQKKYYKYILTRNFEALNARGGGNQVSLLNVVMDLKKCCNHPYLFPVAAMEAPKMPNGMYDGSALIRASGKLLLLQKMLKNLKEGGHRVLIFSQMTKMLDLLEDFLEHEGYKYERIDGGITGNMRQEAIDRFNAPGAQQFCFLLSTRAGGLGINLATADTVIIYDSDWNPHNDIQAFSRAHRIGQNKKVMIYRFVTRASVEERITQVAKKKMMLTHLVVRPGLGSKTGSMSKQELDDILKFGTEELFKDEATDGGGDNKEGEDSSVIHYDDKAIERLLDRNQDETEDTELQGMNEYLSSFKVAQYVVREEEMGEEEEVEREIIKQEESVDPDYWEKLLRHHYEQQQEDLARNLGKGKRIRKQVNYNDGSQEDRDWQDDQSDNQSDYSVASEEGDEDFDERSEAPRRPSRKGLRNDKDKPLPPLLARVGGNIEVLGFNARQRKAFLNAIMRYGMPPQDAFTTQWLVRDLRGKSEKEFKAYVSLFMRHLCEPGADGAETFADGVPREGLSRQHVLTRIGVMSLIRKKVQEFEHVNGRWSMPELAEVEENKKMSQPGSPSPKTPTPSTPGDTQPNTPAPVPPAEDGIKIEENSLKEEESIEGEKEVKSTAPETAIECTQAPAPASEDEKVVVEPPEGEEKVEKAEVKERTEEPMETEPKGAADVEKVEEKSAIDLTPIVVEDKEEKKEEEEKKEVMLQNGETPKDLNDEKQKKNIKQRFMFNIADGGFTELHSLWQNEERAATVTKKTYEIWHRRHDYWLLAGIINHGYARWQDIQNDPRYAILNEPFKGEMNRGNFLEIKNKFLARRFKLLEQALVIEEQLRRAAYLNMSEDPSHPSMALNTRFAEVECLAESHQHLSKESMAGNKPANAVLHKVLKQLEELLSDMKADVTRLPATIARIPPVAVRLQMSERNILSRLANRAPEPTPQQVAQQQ

Legend:
[1] = molecular target: BAF155 (SMARCC1), core SWI/SNF subunit (human (endogenous in NCI-H660 and LNCaP-AR)) (UniProt Q92922); experiment: co-IP; co-IP with anti-BAF155 antibody (rabbit IgG isotype control) from nuclear fraction of LNCaP-AR cells, overnight 4 °C, Protein G magnetic beads; immunoblotting
[2] = molecular target: BAF155 (SMARCC1), core SWI/SNF subunit (human (endogenous in NCI-H660 and LNCaP-AR)) (UniProt Q92922); experiment: co-IP; co-IP with anti-BAF155 antibody (rabbit IgG isotype control) from nuclear fraction of NCI-H660 cells, overnight 4 °C, Protein G magnetic beads; immunoblotting

binding [2] | Molecule | binding [1]
– | HOXB13 (from UniProt Q92826 1-284) | binds
binds | CHD4 (from UniProt Q14839 1-1912) | no binding (condition: in LNCaP-AR (adenocarcinoma) cells)
binds | growth factor VGF (protein, UniProt O15240 23-615) APPGRPEAQPPPLSSEHKEPVAGDAVPGPKDGSAPEVRGARNSEPQDEGELFQGVDPRALAAVLLQALDRPASPPAPSGSQQGPEEEAAEALLTETVRSQTHSLPAPESPEPAAPPRPQTPENGPEASDPSEELEALASLLQELRDFSPSSAKRQQETAAAETETRTHTLTRVNLESPGPERVWRASWGEFQARVPERAPLPPPAPSQFQARMPDSGPLPETHKFGEGVSSPKTHLGEALAPLSKAYQGVAAPFPKARRPESALLGGSEAGERLLQQGLAQVEAGRRQAEATRQAAAQEERLADLASDLLLQYLLQGGARQRGLGGRGLQEAAEERESAREEEEAEQERRGGEERVGEEDEEAAEAEAEAEEAERARQNALLFAEEEDGEAGAEDKRSQEETPGHRRKEAEGTEEGGEEEDDEEMDPQTIDSLIELSTKLHLPADDVVSIIEEVEEKRKRKKNAPPEPVPPPRAAPAPTHVRSPQPPPPAPAPARDELPDWNEVLPPWDREEDEVYPPGPYHPFPNYIRPRTLQPPSALRRRHYHHALPPSRHYPGREAQARRAQEEAEAEERRLQEQEELENYIEHVLLRRP | no binding (condition: in LNCaP-AR (adenocarcinoma) cells)
binds | transcription factor NK2 homeobox 1 (NKX2.1/TTF-1) (protein, UniProt P43699 1-371) MSMSPKHTTPFSVSDILSPLEESYKKVGMEGGGLGAPLAAYRQGQAAPPTAAMQQHAVGHHGAVTAAYHMTAAGVPQLSHSAVGGYCNGNLGNMSELPPYQDTMRNSASGPGWYGANPDPRFPAISRFMGPASGMNMSGMGGLGSLGDVSKNMAPLPSAPRRKRRVLFSQAQVYELERRFKQQKYLSAPEREHLASMIHLTPTQVKIWFQNHRYKMKRQAKDKAAQQQLQQDSGGGGGGGGTGCPQQQQAQQQSPRRVAVPVLVKDGKPCQAGAPAPGAASLQGHAQQQAQHQAQAAQAAAAAISVGSGGAGLGAHPGHQPGSAGQSPDLAHHAASPAALQGQVSSLSHLNSSGSDYGTMSCSTLLYGRTW | no binding (condition: in LNCaP-AR (adenocarcinoma) cells)
